Experimental data taken from PubChem BioAssay AID2685 (National Center for Advancing Translational Sciences (NCATS), 2010).
This is one part of the list. These are further read-outs of the screen, such as a control signal, another cell line or another target. No call is given for them. The list favours compounds with an active or inconclusive main result. Potencies come from curve fits of mixed quality, noted in brackets.

Test: qHTS Assay for Lipid Storage Modulators in Drosophila S3 Cells;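 for cell number change: cells counted by Cell Tracker Red CMTPX staining in the red channel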
Details: BODIPY lipid droplet fluorescence, 18-24 h; for cell number change: measured here: cell count max response, cells fed with added oleic acid
Procedure, shortened: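 Laser-scanning cytometry quantifies lipid droplet accumulation (500–530 nm total intensity; droplet/cell object ratio) in oleic acid-fed (400 uM added) Drosophila S3 cells treated with a concentration series. 20 uM Triacsin C defined 100% inhibition.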

[1] = measured here: lipid fluorescence (Fed channel) AC50, cells fed with added oleic acid
[2] = measured here: cell number channel AC50, cells fed with added oleic acid

Row | Structure (SMILES) | cell number change [%] | AC50 [1] | AC50 [2]
1 | OCCC1CN(CC(c2ccccc2)c2ccccc2)CCN1C1CCCC1 (centres undefined) | 0.959 |  | 
2 | Cc1ccc(S(=O)(=O)Nc2c(C)n(C)n(-c3ccccc3)c2=O)cc1C(=O)NCc1ccccn1 | 27.7 | 29100 nM [rising, single point] | 
3 | CSc1ncc(C(=O)Nc2ccccc2C)c(C)n1 | 3.55 |  | 4110 nM [rising, single point]
4 | CCN1C(=O)/C(=C\c2nc3ccccc3c(=O)n2-c2ccccc2)c2ccccc21 | -1.57 | 29100 nM [falling, single point] | 
5 | CC1CCN(c2nc(Cl)nc(Nc3ccc([N+](=O)[O-])cc3)n2)CC1 | 5.04 | 366 nM [rising, partial curve, poor fit] | 366 nM [rising, partial curve, poor fit]
6 | O=C(CC1CCCCC1)NCc1ccc(F)cc1 | 8.67 |  | 
7 | CC(SC1CCCC1)C(=O)Nc1ccnn1C(C)C (centres undefined) | -17.6 | 5.8 nM [falling, full curve, poor fit] | 
8 | CC(NS(=O)(=O)c1cccc(C(=O)O)c1)C12CC3CC(CC(C3)C1)C2 (centres undefined) | -17.6 |  | 
9 | CCCC(=O)NC1CCCc2c1cnn2-c1ccc(C)c(C)c1 (centres undefined) | -53.9 |  | 1640 nM [falling, full curve]
10 | COc1ccccc1C(CCN(Cc1cccs1)C(C)=O)c1ccco1 (centres undefined) | -14.8 | 2310 nM [rising, full curve, poor fit] | 
11 | CC1CCCC(C)N1CC(C)(C)NS(=O)(=O)c1ccc(Cl)cc1 (centres undefined) | -33.9 |  | 
12 | COC(=O)/C(C#N)=C/c1c(N2CCCCCC2)nc2c(C)cccn2c1=O | 30.6 | 580 nM [rising, single point] | 14600 nM [rising, single point]
13 | CCOc1ccc(-c2nnc(N(CC)C(=O)C3CCC3)s2)cc1 | 87.6 | 130 nM [rising, full curve, poor fit] | 29100 nM [rising, single point]
14 | COc1ccc(OC)c(NC(=O)C(C)N2c3cccc4cccc(c34)S2(=O)=O)c1 (centres undefined) |  | 3160 nM [falling, partial curve, poor fit] | 6510 nM [rising, single point]
15 | COc1ccccc1N(CC(=O)NC1CCCC1)C(=O)CNC(=O)c1cccs1 | -24.8 | 206 nM [falling, full curve, poor fit] | 
16 | N#Cc1c(NC(=O)CSc2nnc(-c3ccncc3)n2CC2CCCO2)sc2c1CCCC2 (centres undefined) | 50.9 | 4110 nM [rising, single point] | 580 nM [rising, full curve]
17 | COc1ccc(-c2cn(CCO)c(-c3ccc(Cl)nc3)n2)cc1 | 18.7 | 6510 nM [rising, partial curve] | 
18 | O=C1CCN(S(=O)(=O)c2ccc(Cl)cc2)CC1 | 3.23 |  | 
19 | O=C(NCC1CCCO1)c1ccc(COc2ccc(Br)cc2)cc1 (centres undefined) | 6.66 |  | 920 nM [rising, full curve, poor fit]

Row | Structure (SMILES) | cell number change [%] | AC50 [1] | AC50 [2]
20 | O=C(/C=N\O)NCCCNCc1ccccc1 | -0.13 | 3660 nM [rising, partial curve, poor fit] | 
21 | O=C(NCc1ccc(F)cc1)C1CCN(S(=O)(=O)c2ccc(Br)s2)CC1 | -12.7 | 2310 nM [rising, partial curve] | 
22 | COc1ccc(NC(=O)CN(C)C(=O)c2ccc(=O)[nH]c2)cc1 | 13.7 | 1460 nM [falling, partial curve, poor fit] | 
23 | Cc1ccc2nc(-c3ccc(-c4ccccn4)s3)cn2c1 | 0.774 |  | 326 nM [rising, full curve, poor fit]
24 | CCn1cc(-c2cc(C(=O)O)on2)c(C)n1 | -0.294 | 6510 nM [falling, single point] | 6510 nM [falling, single point]
25 | CC(CC(=O)O)n1nnc2ccccc21 (centres undefined) | -26.6 | 130 nM [falling, full curve, poor fit] | 65.1 nM [falling, full curve, poor fit]
26 | C/C=C/C(=O)OCC(=O)Nc1cc(OC)c([N+](=O)[O-])cc1C | 32.2 |  | 29100 nM [rising, single point]
27 | Cn1c(SCC(N)=O)nnc1C1CCN(C(=O)NC2CCCCC2)CC1 | 4.42 | 517 nM [falling, full curve] | 
28 | O=C(N/N=C(\c1ccccc1)c1cccnc1)C(O)(c1ccccc1)c1ccccc1 | 8.91 |  | 
29 | CC1CN(S(=O)(=O)c2cccc(C(=O)OCC(=O)NCc3ccccc3)c2)CC(C)O1 (centres undefined) | 20.2 | 41.1 nM [rising, full curve, poor fit] | 
30 | COc1ccc(Nc2nnc(SCC(=O)NC(=O)Nc3ccc4c(c3)OCCO4)s2)cc1 | 85.5 |  | 29100 nM [rising, partial curve]
31 | Cc1cc(OC(=O)c2ccccc2[N+](=O)[O-])c([N+](=O)[O-])c(=O)[nH]1 | 31.4 |  | 36600 nM [rising, partial curve, poor fit]
32 | COC(=O)c1c(C)[nH]c(C(=O)C(C)OC(=O)C2CC2)c1C (centres undefined) | -4.15 | 4.61 nM [rising, full curve, poor fit] | 
33 | Cc1cccc(NC(=O)c2ccc(S(=O)(=O)N3CCOCC3)cc2)n1 | -22 | 731 nM [rising, single point] | 
34 | CN1CCC(NC(=O)c2cccc(Oc3ccccc3)c2)CC1 | 7.46 |  | 
35 | CC(=O)c1ccc(NCC(=O)N2CCN(c3ccccc3)CC2)cc1 |  |  | 6510 nM [falling, single point]
36 | CCCn1nnnc1SCC(=O)NNC(=O)c1ccco1 | -9.33 | 116 nM [falling, full curve] | 
37 | CN(c1ccc(OCC(=O)OCC(=O)NC2CCCC2)cc1)S(=O)(=O)c1ccc2ccccc2c1 | -40.3 | 29100 nM [falling, single point] | 23100 nM [falling, single point]
38 | CCC(C)C(NC(=O)C1CCC(=O)N1C(=O)OCc1ccccc1)C(=O)NC(C(=O)N1CCCC1C(N)=O)C(C)CC (centres undefined) | -2.86 |  | 

2 consecutive records out of the list so far:
Row | Structure (SMILES) | cell number change [%] | AC50 [1] | AC50 [2]
21 | O=C(NCc1ccc(F)cc1)C1CCN(S(=O)(=O)c2ccc(Br)s2)CC1 | -12.7 | 2310 nM [rising, partial curve] | 
22 | COc1ccc(NC(=O)CN(C)C(=O)c2ccc(=O)[nH]c2)cc1 | 13.7 | 1460 nM [falling, partial curve, poor fit] | 
